Reference: patent EP0403301B1, “Aerosols of pyrido[1,2-a]pyrimidine compounds” (TOKYO TANABE COMPANY LIMITED, priority 1989, dated 1990)
At least one read-out could not be matched to a standard name with certainty.

Assay: solubility in propellants and in propellant/solubilizing agent mixtures
Assay type: physicochemical
Description: Inhalations for use as antiallergic agents include aqueous solution type aerosol inhalations, solution type aerosol inhalations and suspension type aerosol inhalations. The solubilities of pyrido[1,2-a]pyrimidine compounds in water are very low. For example, the solubility of 9-[(4-acetyl-3-hydroxy-2-n-propylphenoxy)methyl]-3-(1H-tetrazol-5-yl)-4H-pyrido[1,2-a]pyrimidin-4-one (hereinafter referred to as AS-35) in water is as low as 0.4 µg/ml. Accordingly, it would be impractical to prepare an aqueous solution type aerosol inhalation of AS-35, because this would require massive containers and devices. Moreover, in order to prepare a solution type aerosol inhalation of a pyrido[1,2-a]pyrimidine compound, it must be dissolved in a propellant or a mixture of a propellant and a commonly used solubilizing agent. […] Moreover, AS-35 is also insoluble in mixtures of such propellants and commonly used solubilizing agents. Thus, it is impossible to prepare a solution type aerosol inhalation of AS-35.

CCCc1c(OCc2cccn3c(=O)c(-c4nnn[nH]4)cnc23)ccc(C(C)=O)c1O [AS-35, 9-[(4-acetyl-3-hydroxy-2-n-propylphenoxy)methyl]-3-(1H-tetrazol-5-yl)-4H-pyrido[1,2-a]pyrimidin-4-one]
solubility in mixtures of propellants and commonly used solubilizing agents: insoluble
